The source of these data is PMC8058707.

Protein sequences, listed by entry. Tags and fused reporters are not part of them.
UniProt P46937: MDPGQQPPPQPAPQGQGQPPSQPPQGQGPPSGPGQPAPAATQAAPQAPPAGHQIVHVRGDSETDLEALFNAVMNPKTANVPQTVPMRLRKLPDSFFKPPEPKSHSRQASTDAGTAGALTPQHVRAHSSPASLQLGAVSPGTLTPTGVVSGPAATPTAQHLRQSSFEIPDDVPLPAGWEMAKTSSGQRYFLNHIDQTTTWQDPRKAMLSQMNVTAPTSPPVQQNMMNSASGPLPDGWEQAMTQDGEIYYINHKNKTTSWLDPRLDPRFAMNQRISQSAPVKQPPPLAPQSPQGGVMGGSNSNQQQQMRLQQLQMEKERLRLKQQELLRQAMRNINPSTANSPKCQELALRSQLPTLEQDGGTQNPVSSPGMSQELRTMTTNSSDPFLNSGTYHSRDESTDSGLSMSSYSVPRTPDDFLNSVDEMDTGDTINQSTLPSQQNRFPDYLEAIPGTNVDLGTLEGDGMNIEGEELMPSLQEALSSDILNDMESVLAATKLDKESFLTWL
UniProt Q9Y297: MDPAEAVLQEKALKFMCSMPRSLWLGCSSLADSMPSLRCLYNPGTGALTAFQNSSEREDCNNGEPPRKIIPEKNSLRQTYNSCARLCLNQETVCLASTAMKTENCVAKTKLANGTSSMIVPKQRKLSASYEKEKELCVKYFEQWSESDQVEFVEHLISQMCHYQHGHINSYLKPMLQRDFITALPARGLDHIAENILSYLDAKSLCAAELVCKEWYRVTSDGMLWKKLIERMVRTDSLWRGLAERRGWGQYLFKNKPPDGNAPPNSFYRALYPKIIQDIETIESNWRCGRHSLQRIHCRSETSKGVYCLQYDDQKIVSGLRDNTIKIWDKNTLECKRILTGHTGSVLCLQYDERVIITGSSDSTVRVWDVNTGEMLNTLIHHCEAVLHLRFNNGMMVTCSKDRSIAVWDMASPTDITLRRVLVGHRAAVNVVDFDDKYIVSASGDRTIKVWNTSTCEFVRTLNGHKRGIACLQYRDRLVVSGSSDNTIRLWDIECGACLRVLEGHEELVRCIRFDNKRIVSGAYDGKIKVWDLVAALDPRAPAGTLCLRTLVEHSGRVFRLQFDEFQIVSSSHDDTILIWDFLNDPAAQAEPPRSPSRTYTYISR

The target of the assay is Yes-associated protein (human (endogenous in H1975)) (UniProt P46937). Briefly: co-IP; whole cell lysates incubated with antibody-conjugated protein A/G magnetic beads in Western/IP lysis buffer at 4 °C overnight, washed five times, then IB; cells treated with erastin, Sorafenib or RSL3.

These are yes or no findings as the source states them, for the method shown. Binding seen in cells or lysates may run through a third protein. Some results given as binding are weak or reduced against the parent protein; the word gives no strength.

As to “beta-transducin repeat containing E3 ubiquitin protein ligase (from UniProt Q9Y297 1-605)”, the binding entry is “binds”.
